Data as given in PubChem BioAssay AID504764 (Drosophila RNAi Screening Center, 2011).

Purpose: 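Knock-downs that raise or lower a Notch target reporter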 (primary screen)
Cell system: Drosophila Kc167 cells
Reagents: long dsRNA against Drosophila genes
Duration: about 5 days (4 days dsRNA, then 24 h after transfection)
Treatment: transfection of constitutively active membrane-tethered Notch lacking the extracellular domain, read 24 h later
Measured: 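Light from a Notch-responsive E(spl)m3 luciferase reporter under active Notch, with control-promoter and no-Notch reporter wells to normalise; raw counts from paired wells a and b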
Scale: induced reporter light, run 1, well a and induced reporter light, run 1, well b: higher = more light from the Notch target reporter with active Notch; control promoter light, run 1, well a and control promoter light, run 1, well b: higher = more light from the viral control promoter (cell number, transfection, viability); uninduced reporter light, run 1, well a: higher = more light from the Notch target reporter without active Notch
Hit rule: 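Wells with low control signal or poorly matching duplicates excluded; duplicates averaged; per source plate, z beyond ±2 for induced/control log2 ratio or beyond ±1.8 for induced/uninduced marks a hit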
Meaning of the calls: active = modifier hit (raised or lowered Notch signal); inactive = not a hit
In all, the deposit lists about 22,000 reagents; this is a random part of those that have a named target and a result. Over the whole deposit, 403 (1.9%) are marked active. 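Unnormalised raw counts per well; ratio z-scores behind the hit calls and whether each hit raises or lowers signal are not deposited.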 The numbers tell different reagents against one gene apart. The record does not give: the amount of reagent.

nAChRalpha6 #1 — induced reporter light, run 1, well a: 1.08e5; induced reporter light, run 1, well b: 1.19e5; control promoter light, run 1, well a: 1.37e5; control promoter light, run 1, well b: 1.04e5; uninduced reporter light, run 1, well a: 10742; Call: inactive
nAChRalpha6 #2 — induced reporter light, run 1, well a: 1.99e5; induced reporter light, run 1, well b: 2.26e5; control promoter light, run 1, well a: 2.08e5; control promoter light, run 1, well b: 1.71e5; uninduced reporter light, run 1, well a: 15730; Call: inactive
CG10752 — induced reporter light, run 1, well a: 1.59e5; induced reporter light, run 1, well b: 1.33e5; control promoter light, run 1, well a: 1.15e5; control promoter light, run 1, well b: 79800; uninduced reporter light, run 1, well a: 15700; Call: inactive
PsGEF — induced reporter light, run 1, well a: 1.12e5; induced reporter light, run 1, well b: 93555; control promoter light, run 1, well a: 1.35e5; control promoter light, run 1, well b: 1.66e5; uninduced reporter light, run 1, well a: 8670; Call: inactive
l(3)neo43 — induced reporter light, run 1, well a: 2.18e5; induced reporter light, run 1, well b: 2.31e5; control promoter light, run 1, well a: 2.04e5; control promoter light, run 1, well b: 1.89e5; uninduced reporter light, run 1, well a: 17240; Call: inactive
bw #1 — induced reporter light, run 1, well a: 1.24e5; induced reporter light, run 1, well b: 1.41e5; control promoter light, run 1, well a: 2.18e5; control promoter light, run 1, well b: 1.82e5; uninduced reporter light, run 1, well a: 8800; Call: inactive
bw #2 — induced reporter light, run 1, well a: 2.06e5; induced reporter light, run 1, well b: 1.61e5; control promoter light, run 1, well a: 1.31e5; control promoter light, run 1, well b: 1.52e5; uninduced reporter light, run 1, well a: 14215; Call: inactive
CG8281 — induced reporter light, run 1, well a: 2.33e5; induced reporter light, run 1, well b: 2.23e5; control promoter light, run 1, well a: 1.93e5; control promoter light, run 1, well b: 1.98e5; uninduced reporter light, run 1, well a: 10685; Call: inactive
CG9003 — induced reporter light, run 1, well a: 1.04e5; induced reporter light, run 1, well b: 1.22e5; control promoter light, run 1, well a: 1.29e5; control promoter light, run 1, well b: 1.57e5; uninduced reporter light, run 1, well a: 12015; Call: inactive
l(2)k09913 — induced reporter light, run 1, well a: 1.66e5; induced reporter light, run 1, well b: 1.55e5; control promoter light, run 1, well a: 1.18e5; control promoter light, run 1, well b: 1.23e5; uninduced reporter light, run 1, well a: 11845; Call: inactive
I-2 — induced reporter light, run 1, well a: 43790; induced reporter light, run 1, well b: 70495; control promoter light, run 1, well a: 53720; control promoter light, run 1, well b: 76325; uninduced reporter light, run 1, well a: 3995; Call: inactive
CG14693 — induced reporter light, run 1, well a: 46375; induced reporter light, run 1, well b: 50185; control promoter light, run 1, well a: 49550; control promoter light, run 1, well b: 61490; uninduced reporter light, run 1, well a: 3155; Call: inactive
Sln — induced reporter light, run 1, well a: 1.11e5; induced reporter light, run 1, well b: 1.01e5; control promoter light, run 1, well a: 1.42e5; control promoter light, run 1, well b: 1.36e5; uninduced reporter light, run 1, well a: 10620; Call: inactive
CG15208 — induced reporter light, run 1, well a: 1.31e5; induced reporter light, run 1, well b: 1.25e5; control promoter light, run 1, well a: 2.00e5; control promoter light, run 1, well b: 2.01e5; uninduced reporter light, run 1, well a: 9480; Call: inactive
Tgi #1 — induced reporter light, run 1, well a: 85155; induced reporter light, run 1, well b: 96285; control promoter light, run 1, well a: 1.28e5; control promoter light, run 1, well b: 93890; uninduced reporter light, run 1, well a: 5880; Call: inactive
Tgi #2 — induced reporter light, run 1, well a: 89840; induced reporter light, run 1, well b: 86480; control promoter light, run 1, well a: 1.26e5; control promoter light, run 1, well b: 85660; uninduced reporter light, run 1, well a: 6845; Call: inactive
CG15111 — Call: inactive
CG8173 — induced reporter light, run 1, well a: 67355; induced reporter light, run 1, well b: 67955; control promoter light, run 1, well a: 1.04e5; control promoter light, run 1, well b: 78625; uninduced reporter light, run 1, well a: 11120; Call: inactive

Targets above whose target name begins with N or n (2):
nAChRalpha6 #1 — induced reporter light, run 1, well a: 1.08e5; induced reporter light, run 1, well b: 1.19e5; control promoter light, run 1, well a: 1.37e5; control promoter light, run 1, well b: 1.04e5; uninduced reporter light, run 1, well a: 10742; Call: inactive
nAChRalpha6 #2 — induced reporter light, run 1, well a: 1.99e5; induced reporter light, run 1, well b: 2.26e5; control promoter light, run 1, well a: 2.08e5; control promoter light, run 1, well b: 1.71e5; uninduced reporter light, run 1, well a: 15730; Call: inactive
